No constants are given. Whether binding was seen depends on the method and setting. In cells and extracts the contact can be indirect. Some entries that bind do so weakly or less than the wild type.
Target: T1, Matrin 3 of human post-mortem lumbar spinal cord (human (endogenous in lumbar spinal cord tissue)) (UniProt P43243)
T1 sequence: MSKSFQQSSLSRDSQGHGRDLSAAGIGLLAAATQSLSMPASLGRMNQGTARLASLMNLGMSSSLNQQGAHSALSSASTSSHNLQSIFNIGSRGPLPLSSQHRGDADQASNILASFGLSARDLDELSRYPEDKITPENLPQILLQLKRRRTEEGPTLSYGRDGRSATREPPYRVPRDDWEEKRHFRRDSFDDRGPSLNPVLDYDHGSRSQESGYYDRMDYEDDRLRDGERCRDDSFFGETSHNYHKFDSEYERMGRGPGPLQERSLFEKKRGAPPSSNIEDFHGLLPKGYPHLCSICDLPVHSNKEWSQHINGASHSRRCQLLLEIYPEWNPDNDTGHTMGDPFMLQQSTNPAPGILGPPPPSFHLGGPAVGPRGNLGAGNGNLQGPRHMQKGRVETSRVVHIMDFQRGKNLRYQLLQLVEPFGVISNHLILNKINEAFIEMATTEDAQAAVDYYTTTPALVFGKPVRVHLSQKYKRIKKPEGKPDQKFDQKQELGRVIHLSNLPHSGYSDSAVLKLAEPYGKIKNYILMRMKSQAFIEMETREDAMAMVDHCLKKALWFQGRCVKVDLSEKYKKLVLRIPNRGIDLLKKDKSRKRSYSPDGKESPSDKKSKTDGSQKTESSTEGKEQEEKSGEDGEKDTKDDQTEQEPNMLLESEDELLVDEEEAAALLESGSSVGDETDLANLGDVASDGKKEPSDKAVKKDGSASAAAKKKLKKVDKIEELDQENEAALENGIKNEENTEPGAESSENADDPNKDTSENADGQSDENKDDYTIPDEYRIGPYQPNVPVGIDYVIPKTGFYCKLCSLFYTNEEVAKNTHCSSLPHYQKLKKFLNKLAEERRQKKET
Experiment: co-IP; Matrin 3 IP from nuclear lysates (150 µg protein) of human post-mortem lumbar spinal cord, controls n = 3 and ALS patients n = 3; western blot for Ddx39b and Matrin 3

Protein sequences, listed by entry. Tags and fused reporters are not part of them.
UniProt Q13838: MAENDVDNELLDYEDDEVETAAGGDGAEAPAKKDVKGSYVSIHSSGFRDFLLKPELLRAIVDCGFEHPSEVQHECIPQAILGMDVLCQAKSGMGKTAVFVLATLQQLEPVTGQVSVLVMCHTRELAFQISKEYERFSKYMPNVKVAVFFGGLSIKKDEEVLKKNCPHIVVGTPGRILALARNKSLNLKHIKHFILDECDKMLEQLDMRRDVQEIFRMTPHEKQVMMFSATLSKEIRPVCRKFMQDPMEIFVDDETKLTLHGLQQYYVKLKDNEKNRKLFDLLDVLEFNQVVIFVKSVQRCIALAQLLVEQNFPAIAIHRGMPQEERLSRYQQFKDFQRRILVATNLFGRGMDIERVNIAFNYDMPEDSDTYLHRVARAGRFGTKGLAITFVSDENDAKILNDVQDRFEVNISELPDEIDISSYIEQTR

binding: binds
Substance: Ddx39b of human post-mortem lumbar spinal cord (from UniProt Q13838 1-428)

Source: paper PMC5674072
